According to patent US12544355B2, “Use of monascinol in preparation of fat-reducing product” (TIANJIN UNIVERSITY OF SCIENCE AND TECHNOLOGY, priority 2019, dated 2026):
Marks after values point to notes of the source that are not given here.

Test system: Golden Syrian hamsters fed with high-fat diet
Test: High-fat diet hamster experiment, 10 weeks gavage
Assay type: in vivo, Golden Syrian hamster
Conditions: gavage 20 mg/kg body weight daily
Method: 24 male Golden Syrian hamsters (hamsters for short) used in the animal experiment were purchased from Beijing Vital River Laboratory Animal Technology Co., Ltd., weighing 110-120 g, and aged 8 weeks.
After acclimation for a period of time, they were randomly divided into 3 groups, each with 8 animals, and the grouping and experiments were carried out as follows:
Every day starting from Day 1: • Normal group (NOR): take normal-chow diet freely, and gavage the same amount of CMC-Na solution as the MC group; • High fat group (HFD): take high-fat chow diet freely, and gavage the same amount of CMC-Na solution as the MC group; • MC group: take high-fat chow diet freely, and gavage MC (dissolved in CMC-Na solution) at a dose of 20 mg/kg body weight.
The weight and food intake of the hamsters were measured every week. After 10 weeks, tissue samples or serum samples were collected and the following analysis was performed.
TC and TG in the liver were extracted based on the Folch method, the TC and TG detection kits produced by Nanjing Jiancheng Bioengineering Institute was used to detect the contents of TC and TG in liver tissue according to the method provided in the instructions.
Cobas8000 E602 full-automatic biochemical analyzer (Roche Diagnostics Co., Ltd., Germany) was used to measure TC and TG in serum of collected serum samples.

C/C=C/C1=CC2=C(CO1)C[C@]1(C)OC(=O)[C@H](C(O)CCCCC)[C@H]1C2 (some centres unmarked) [MC, Monascinol]
Food intake: 6.71 ± 0.35^b g | Kidney weight: 0.97 ± 0.04^a g
